No constants are given. Whether binding was seen depends on the method and setting. Some binding calls cover weakened binding; strength is not graded here.
Columns and labels:
Test in all cases: flow cytometry of BJ5465 yeast displaying CV1, Alexa647 detection
[1] = molecular target: CV1 surface accessible fusion protein with 465 amino acid stalk (S465), displayed on BJ5465 yeast
[2] = molecular target: CV1 surface accessible fusion protein with 41 amino acid stalk (S41), displayed on BJ5465 yeast
[3] = molecular target: CV1 surface accessible fusion protein with 19 amino acid stalk (S19), displayed on BJ5465 yeast
[4] = molecular target: CV1 surface accessible fusion protein with 232 amino acid stalk (S232), displayed on BJ5465 yeast

Amino acid sequences for entries named in this document (tags omitted). Residues count along the entry.
UniProt Q08722, residues 19-135: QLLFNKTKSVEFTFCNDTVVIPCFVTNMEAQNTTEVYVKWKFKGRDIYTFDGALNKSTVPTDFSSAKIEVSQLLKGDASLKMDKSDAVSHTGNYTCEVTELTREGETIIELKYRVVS

Measured: binding

CD47-biotin monomers (~15 kDa) (from UniProt Q08722 19-135) (ligand)
binds: all assays above
